Results are given in words; binding and its absence hold for the method and conditions named. In cells and extracts the contact can be indirect. Some binding calls cover weakened binding; strength is not graded here.

Chains of the proteins cited; added tags and fusions are not shown. Residues count along the entry.
UniProt Q62407, residues 855-3262: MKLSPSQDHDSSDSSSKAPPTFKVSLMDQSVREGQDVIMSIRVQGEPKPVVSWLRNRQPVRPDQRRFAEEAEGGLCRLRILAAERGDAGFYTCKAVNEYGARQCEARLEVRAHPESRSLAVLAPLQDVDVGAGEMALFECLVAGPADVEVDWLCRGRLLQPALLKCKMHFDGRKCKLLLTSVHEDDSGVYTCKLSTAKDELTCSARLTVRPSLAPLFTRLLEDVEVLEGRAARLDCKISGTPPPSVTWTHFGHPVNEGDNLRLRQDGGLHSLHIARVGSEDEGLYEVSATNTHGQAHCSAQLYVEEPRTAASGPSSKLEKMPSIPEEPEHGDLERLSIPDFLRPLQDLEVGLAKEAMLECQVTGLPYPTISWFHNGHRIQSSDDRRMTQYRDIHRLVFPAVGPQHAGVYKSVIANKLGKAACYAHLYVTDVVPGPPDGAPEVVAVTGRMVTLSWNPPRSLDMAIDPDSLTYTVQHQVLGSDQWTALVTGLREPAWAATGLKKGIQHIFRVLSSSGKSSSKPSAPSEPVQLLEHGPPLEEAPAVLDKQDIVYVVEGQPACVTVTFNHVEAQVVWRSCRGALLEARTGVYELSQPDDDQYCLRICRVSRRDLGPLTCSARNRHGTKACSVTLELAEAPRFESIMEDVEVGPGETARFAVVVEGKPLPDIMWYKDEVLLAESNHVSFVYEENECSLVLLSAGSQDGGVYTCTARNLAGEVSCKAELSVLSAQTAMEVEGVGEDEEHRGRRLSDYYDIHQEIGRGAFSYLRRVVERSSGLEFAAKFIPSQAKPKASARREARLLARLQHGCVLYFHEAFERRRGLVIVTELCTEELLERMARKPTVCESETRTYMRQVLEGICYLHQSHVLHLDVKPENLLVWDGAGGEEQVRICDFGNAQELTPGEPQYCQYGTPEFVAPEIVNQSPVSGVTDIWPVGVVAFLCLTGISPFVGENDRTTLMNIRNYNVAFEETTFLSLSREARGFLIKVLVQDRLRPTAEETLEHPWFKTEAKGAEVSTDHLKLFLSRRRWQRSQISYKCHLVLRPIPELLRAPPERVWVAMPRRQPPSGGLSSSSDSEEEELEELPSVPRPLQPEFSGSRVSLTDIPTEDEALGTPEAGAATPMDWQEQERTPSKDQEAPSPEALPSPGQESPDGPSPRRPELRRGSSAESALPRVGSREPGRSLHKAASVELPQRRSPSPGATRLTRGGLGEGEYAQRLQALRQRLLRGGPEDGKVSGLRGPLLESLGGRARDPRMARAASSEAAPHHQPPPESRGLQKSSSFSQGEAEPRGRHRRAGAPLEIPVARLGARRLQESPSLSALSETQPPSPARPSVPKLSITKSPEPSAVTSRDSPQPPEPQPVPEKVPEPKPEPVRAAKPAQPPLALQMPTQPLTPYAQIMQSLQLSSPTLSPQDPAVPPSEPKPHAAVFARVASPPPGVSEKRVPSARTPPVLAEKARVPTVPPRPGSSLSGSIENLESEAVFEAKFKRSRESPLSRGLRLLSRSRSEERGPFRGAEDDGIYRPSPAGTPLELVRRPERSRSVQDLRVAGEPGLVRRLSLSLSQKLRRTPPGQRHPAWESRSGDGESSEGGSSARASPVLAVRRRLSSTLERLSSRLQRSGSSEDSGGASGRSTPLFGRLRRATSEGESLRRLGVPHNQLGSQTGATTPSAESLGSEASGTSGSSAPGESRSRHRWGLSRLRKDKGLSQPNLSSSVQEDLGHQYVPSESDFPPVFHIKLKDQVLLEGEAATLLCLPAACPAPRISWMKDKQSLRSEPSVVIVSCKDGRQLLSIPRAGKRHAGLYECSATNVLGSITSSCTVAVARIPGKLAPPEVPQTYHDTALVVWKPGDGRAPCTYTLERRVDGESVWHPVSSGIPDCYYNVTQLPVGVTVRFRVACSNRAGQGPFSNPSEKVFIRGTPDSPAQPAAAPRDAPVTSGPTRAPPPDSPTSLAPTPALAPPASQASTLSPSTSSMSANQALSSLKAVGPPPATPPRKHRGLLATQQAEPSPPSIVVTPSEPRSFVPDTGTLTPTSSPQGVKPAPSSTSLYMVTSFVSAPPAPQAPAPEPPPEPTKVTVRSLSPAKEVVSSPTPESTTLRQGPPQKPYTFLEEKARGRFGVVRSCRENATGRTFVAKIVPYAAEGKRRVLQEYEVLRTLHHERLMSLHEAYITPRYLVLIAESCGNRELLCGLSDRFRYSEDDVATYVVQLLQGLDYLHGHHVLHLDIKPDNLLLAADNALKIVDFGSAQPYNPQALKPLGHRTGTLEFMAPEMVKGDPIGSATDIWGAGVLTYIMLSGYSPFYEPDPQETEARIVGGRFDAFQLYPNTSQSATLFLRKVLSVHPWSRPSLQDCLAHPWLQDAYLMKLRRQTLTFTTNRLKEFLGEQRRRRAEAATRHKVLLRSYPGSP

This is an account of results in publication PMC10837246.

In this test the target is Striated preferentially expressed gene (Speg), Spegα isoform (mouse (endogenous in adult mouse heart)) (UniProt Q62407). The experiment in a line: co-IP; adult mouse heart homogenised in Pierce IP lysis buffer with protease and phosphatase inhibitors; 1500 μg protein pre-cleared, incubated with Speg or PGC-1α antibody overnight at 4 °C, magnetic Protein-A Dynabeads 2 h at 4 °C; Western blot; normal rabbit IgG as control.

B1: Peroxisome proliferator-activated receptor γ coactivator 1α (PGC-1α) (protein, UniProt O70343 1-797)
chain: MAWDMCSQDSVWSDIECAALVGEDQPLCPDLPELDLSELDVNDLDTDSFLGGLKWCSDQSEIISNQYNNEPANIFEKIDEENEANLLAVLTETLDSLPVDEDGLPSFDALTDGAVTTDNEASPSSMPDGTPPPQEAEEPSLLKKLLLAPANTQLSYNECSGLSTQNHAANHTHRIRTNPAIVKTENSWSNKAKSICQQQKPQRRPCSELLKYLTTNDDPPHTKPTENRNSSRDKCASKKKSHTQPQSQHAQAKPTTLSLPLTPESPNDPKGSPFENKTIERTLSVELSGTAGLTPPTTPPHKANQDNPFKASPKLKPSCKTVVPPPTKRARYSECSGTQGSHSTKKGPEQSELYAQLSKSSGLSRGHEERKTKRPSLRLFGDHDYCQSLNSKTDILINISQELQDSRQLDFKDASCDWQGHICSSTDSGQCYLRETLEASKQVSPCSTRKQLQDQEIRAELNKHFGHPCQAVFDDKSDKTSELRDGDFSNEQFSKLPVFINSGLAMDGLFDDSEDESDKLSYPWDGTQPYSLFDVSPSCSSFNSPCRDSVSPPKSLFSQRPQRMRSRSRSFSRHRSCSRSPYSRSRSRSPGSRSSSRSCYYYESSHYRHRTHRNSPLYVRSRSRSPYSRRPRYDSYEAYEHERLKRDEYRKEHEKRESERAKQRERQKQKAIEERRVIYVGKIRPDTTRTELRDRFEVFGEIEECTVNLRDDGDSYGFITYRYTCDAFAALENGYTLRRSNETDFELYFCGRKQFFKSNYADLDTNSDDFDPASTKSKYDSLDFDSLLKEAQRSLRR
Regarding B1, the binding result is “binds”.

B2: Mitochondrial Na+/Ca2+/Li+ exchanger (NCLX) (protein, UniProt Q925Q3 27-585)
chain: TGDPSTKAHGHIQFSAGSVNQTAMADCRAVCGLNTSDRCDFVRRNPDCRSEAGYLDYLEGIFCYFPPNLLPLAITLYVFWLLYLFLILGVTAAKFFCPNLSAISTNLKLSHNVAGVTFLAFGNGAPDIFSALVAFSDPRTAGLAIGALFGAGVLVTTVVAGGITILHPFMAASRPFLRDIAFYMVAVFLTFTALYLGRITLTWALGYLGLYVFYVVTVIICTWVYQRQRSRSLVHSISETPELLSESEEDQMSSNTNSYDYGDEYRPLLLGRETTVQILIQALNPLDYRKWRTQSISWRVLKVVKLPVEFLLLLTVPVVDPDKDDRNWKRPLNCLQLVISPLVLVLTLQSGVYGIYEIGGLLPVWAVVVIVGTALASVTFFATSNREPPRLHWLFAFLGFLTSALWINAAATEVVNILRSLGVIFRLSNTVLGLTLLAWGNSIGDAFSDFTLARQGYPRMAFSACFGGIIFNILVGVGLGCLLQIIRNHVVEVKLEPDGLLVWVLASALGLSLIFSLVSVPLQCFQLSKAYGLCLLLFYICFLVVVLLTEFGVIHLKKA
Regarding B2, the binding entry is reported as “no binding”.
